## Primary screen of a compound library

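Assay of Toxoplasma gondii numbers, read through their beta-galactosidase reporter with a colour substrate. Compounds at 50 µM. The record gives no direction; the compounds picked for IC50 retests had high values, so higher reads as fewer parasites. About 18,000 compounds were tested under these conditions; 0.94% (about 170) showed 50% or more at least once.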

Results are given as percent effect. How 0% and 100% were set is not recorded. Most values in the screen are low, and negative values occur. The compounds are a random part of those screened.

structure	percent effect
Cc1cc(C(=O)NC(C)(CO)CO)nc2ccccc12	-5.518
CC(C)(C)NCC(=O)Nc1ccc(Cl)cn1	-9.06
O=c1[nH]c(-c2ccccn2)nc2c1CCCN2	-3.733
CCCn1c(SCc2ccon2)n[nH]c1=O	-4.148
O=C(COc1ccc2c(c1)CCC(=O)N2)NCC1CC1	-11.29
CC(=O)c1ncc(Br)cc1F	0.2921
O=C(NC1CC1)c1c(F)cc(F)cc1F	-4.874
COc1ccc(OC)c(NC(=O)CN2CCNCC2)c1	-0.9326
CN(C)c1cccc(NS(=O)(=O)c2cccs2)n1	-1.11
CN(CCCS(C)(=O)=O)Cc1cscn1	-5.876
COc1ccc(CNC(C)(CO)CO)c(Cl)c1	4.1
COCCn1cnnc1SCCN1CCC(C)C1 (stereo not shown)	30.63
CCOc1ccc(C(=O)N(C)Cc2cnn(C)c2)cn1	-8.011
Cn1cnc(S(=O)(=O)NC2CCCCNC2=O)c1Cl (stereo not shown)	-18.04
N#Cc1cc(F)cc(CO)c1	-0.6879
NC1CCC(F)(F)C1 (stereo not shown)	-7.058
Cc1nccn1-c1ccc(CN)cc1F	5.936
Cc1ccnc(NC(=O)CC(C)C)c1	1.103
CCC(NC(=O)c1cccc(=O)[nH]1)c1nc(C)c[nH]1 (stereo not shown)	-10.38
CN(C)C(CNC(=O)c1ccncc1)c1ccsc1 (stereo not shown)	1.518
Nc1ncn(Cc2ccccn2)n1	4.056
COCCS(=O)(=O)Cc1cnn(-c2ccccc2)c1	-0.6415
C[C@H](NCc1cccc(-n2cccn2)c1)C(N)=O	2.24
Cc1cn(CCNC(=O)CN2CCCCCC2=O)nn1	14.8
COc1ccc(Cl)cc1C(=O)N1CCn2cnnc2C1	6.465
Cc1cc(C(=O)NCCC(=O)N2CCCC2)c(C)o1	0.798
Cc1cccc(NC(=O)C2CCC(=O)NC2)n1 (stereo not shown)	34.79
CCOc1ncccc1C(=O)OC(C)C(=O)NC1CC1 (stereo not shown)	5.722
O=S1(=O)CCC(Nc2cc([C@H]3C[C@@H](O)C3)ncn2)CC1	-15.11
Cc1noc(COC2CNC2)n1	-3.101
CC(C)N(C)C(=O)N(C)CC(=O)Nc1ccc(Br)cn1	-17.48
CN(C(=O)CSc1cnn[nH]1)C1CCCCC1	-0.6586
Cn1c(CO)nc2ccc(Br)cc21	0.7829
NC1CC(=O)N(C2CCCCC2)C1 (stereo not shown)	-9.789
NCC1Cc2ccccc21 (stereo not shown)	-4.453
CNc1nc(C(=O)N(C)C(C)c2ccon2)cs1 (stereo not shown)	3.481
Cc1cc(C)cc(N2CCNCC2=O)c1	-2.514
O=C1C=CC(=O)N1C1CCCCC1	-0.2697
CCc1cc(C(N)=O)sc1C	-11.18
CSc1ccccc1NC(=O)CCn1cnc(C#N)n1	8.368
CCS(=O)(=O)CC(=O)Nc1cccc(C(F)(F)F)c1	5.459
CN(C)S(=O)(=O)CCCN1CCC2(CCCNC2=O)C1 (stereo not shown)	25.69
CC(C)NC(=O)C(C)N1CCNCC1 (stereo not shown)	0.2744
CCOc1cccc(CSC(C)CO)n1 (stereo not shown)	15.35
COCCNCC(=O)Nc1cccc(C(C)SC)c1 (stereo not shown)	7.858
Clc1ccsc1CNCc1cc[nH]n1	19.66
Nc1ncc(I)cc1F	-2.867
CCC1CN(Cc2ccccc2OCCO)CCO1 (stereo not shown)	-3.796
CC(C)CCC1CCCCN1C(=O)CN (stereo not shown)	-1.181
O=C(CSc1ccncc1)N1CCOCC(O)C1 (stereo not shown)	-3.245
CC(C)Oc1ccc(C(=O)NCCNC(C)(C)C)cn1	1.783
COC(=O)c1ccc(Cl)c(CN(C)CC(N)=O)c1	-3.864
Cc1nc(NC(=O)c2cccs2)sc1C(=O)N(C)C	-39.77
O=C(c1ccccc1-n1cccn1)N1CCSCC1	5.631
O=C(CC1COCCN1CC1CCC1)c1ccco1 (stereo not shown)	-0.336
CN(C)S(=O)(=O)N(C)CCc1ccccn1	-4.981
CN(c1ncccc1CNS(C)(=O)=O)C1CCCCC1	-21.43
CCC(C(=O)NCC1CCSCC1)N1CCCC1=O (stereo not shown)	2.923
NC(=O)C1CCCN(Cc2ccc(Cl)cc2)C1 (stereo not shown)	-1.944
CCc1cc(NCc2cccnc2)n2nccc2n1	3.949
CC(CO)(NCCS(C)(=O)=O)C1CCCCC1 (stereo not shown)	-10.27
Cc1oc(C)c(C(=O)NCC(=O)N2CCCC2)c1C	1.939
CC(NC(=O)CN1CCCC1=O)C(=O)N(C)C (stereo not shown)	19.31
CCC(NC(=O)c1ccc(O)cc1F)[C@H]1C[C@H](O)C1 (stereo partly shown)	-16.11
CN(Cc1ccc(Br)o1)C(=O)c1nccnc1N	-0.2837
CC(C)NC(=O)NCCN1CCNCC1	-5.411
CCNC(=O)C1CCN(c2ccncc2Cl)CC1	6.412
CCC(=O)NC1=NCCS1	-12.84
CN(CCn1cc(Cl)cn1)CC(C)(C)CO	-5.631
Cc1noc(C)c1CN(C)CC(=O)NCc1ccco1	-1.291
COc1cc(OC)c(N(CCO)CCO)cc1Cl	-14.08
Cn1ccnc1C(O)c1ccc(F)cc1 (stereo not shown)	-10.03
CCCNC(=O)Nc1ccc(CN2CCOCC2)cc1	17.29
CCCC(=O)Nc1ccc(N2CCN(C)CC2)cc1	2.095
CNC(=O)NC(=O)CCN1CCN(S(C)(=O)=O)CC1	-8.041
Cc1nn(C)c(Cl)c1C(=O)N1CCN(C2CC2)CC1	-1.161
CCOc1ccc(NC(=O)NC[C@@H]2C[C@H](F)CN2)cc1	-4.961
COc1ncccc1NC(=O)NCc1csc(C)n1	-5.972
CS(=O)(=O)N1CCCC1c1cccc(F)c1 (stereo not shown)	-5.09
CCCNC(=O)Nc1cn(CC)nc1C(N)=O	-21.86
O=C1CN(Cc2ncc[nH]2)CCN1C1CCCC1	-10.18
COc1ccccc1C1(N)CCC1	-6.357
O=C(Nc1ccc(Br)cn1)C1CCCNC1 (stereo not shown)	56.99
O=C1CCN(S(=O)(=O)N2CCCCC2)CCN1	-8.904
Cc1cccc(NCCCNC(=O)c2cccs2)n1	30.35
NCc1cccc(OCC(F)F)c1	-2.735
CCCC(C#N)NC(=O)c1cnn(C)c1 (stereo not shown)	7.773
CC(NCCO)c1ccc(Br)s1 (stereo not shown)	31.03
Cc1c(C(=O)NC[C@H]2CCCN2)n(C)c2ccccc12	-5.551
COCCCC1CCNCC1	4.614
Cc1cc(C(=O)NCCNC2CC2)ccc1F	-12.66
COc1ccc(C(C)N)c(C)c1OC (stereo not shown)	-1.478
CCOc1cccc(CCNC(=O)N(C)C(C)C)n1	1.624

10 of the entries, repeated:

{"structure": "Cc1cccc(NC(=O)C2CCC(=O)NC2)n1", "stereo": "stereo not shown", "percent effect": 34.79}
{"structure": "O=C(Nc1ccc(Br)cn1)C1CCCNC1", "stereo": "stereo not shown", "percent effect": 56.99}
{"structure": "CSc1ccccc1NC(=O)CCn1cnc(C#N)n1", "percent effect": 8.368}
{"structure": "Nc1ncc(I)cc1F", "percent effect": -2.867}
{"structure": "COc1ccc(C(C)N)c(C)c1OC", "stereo": "stereo not shown", "percent effect": -1.478}
{"structure": "NCC1Cc2ccccc21", "stereo": "stereo not shown", "percent effect": -4.453}
{"structure": "CCC1CN(Cc2ccccc2OCCO)CCO1", "stereo": "stereo not shown", "percent effect": -3.796}
{"structure": "COCCCC1CCNCC1", "percent effect": 4.614}
{"structure": "Cc1cc(C(=O)NCCNC2CC2)ccc1F", "percent effect": -12.66}
{"structure": "O=C(CC1COCCN1CC1CCC1)c1ccco1", "stereo": "stereo not shown", "percent effect": -0.336}

Data taken from ChEMBL document CHEMBL3988442, “University of Dundee, Small-Polar-MMV Screening Library” (2021).